Some of these results come from one statement about several compounds together.
Biological target: T1, p38α (Homo sapiens, UniProt Q16539)
T1 construct: GST-tagged fusion protein corresponding to full-length human p38α; purchased Upstate 14-251; host or cells: E. coli
Test: Inhibition of p38α enzyme activity (IMAP fluorescence polarisation kinase assay)
Format: biochemical
Conditions: at 1 μM compound; ATP 20 μM; 2 h at RT
Description: Inhibition of p38α Enzyme Activity:
Compound stocks in 100% DMSO are first diluted in DMSO to a concentration of 1×10^−3 up to 3.2×10^−8 M and then further diluted in kinase assay buffer (10 mM Tris-HCl, pH 7.2, 10 mM MgCl2, 0.01% tween 20, 0.05% NaN3, 1 mM dithiothreitol) to a concentration range of 4×10^−5 up to 1.3×10^−9 M. Of each compound solution 5 μL is transferred into a 384-wells black Optiplate (Packard, 6007279), followed by the addition of 5 μL of ATP (Boehringer, 519987), 5 μL of Fluorescein-labeled EGFR (Epidermal Growth Factor Receptor) peptide substrate and 5 μL of active p38 cc kinase (GST-tagged fusion protein corresponding to full-length human p38α; expressed in E. coli by Upstate, 14-251), all diluted in kinase assay buffer (see final concentrations in Table 1). The mixture is incubated for 2 h at room temperature (RT). […] After incubation for 30 min at RT, FP is measured on an Analyst™ multimode fluorescence plate reader (Molecular Devices) at excitation wavelength of 485 nm and emission wavelength of 530 nm (1 sec/well).
Data handling is performed as follows: percentage effects are calculated based on no-p38-enzyme-addition as the maximum inhibitory effect and with p38 enzyme addition as the minimum inhibitory effect. In each experiment, individual compound concentrations are tested in duplicate and percentage effect is calculated for each concentration.

The chains behind the UniProt entries cited, without tags or fusion partners.
UniProt Q16539, whole entry: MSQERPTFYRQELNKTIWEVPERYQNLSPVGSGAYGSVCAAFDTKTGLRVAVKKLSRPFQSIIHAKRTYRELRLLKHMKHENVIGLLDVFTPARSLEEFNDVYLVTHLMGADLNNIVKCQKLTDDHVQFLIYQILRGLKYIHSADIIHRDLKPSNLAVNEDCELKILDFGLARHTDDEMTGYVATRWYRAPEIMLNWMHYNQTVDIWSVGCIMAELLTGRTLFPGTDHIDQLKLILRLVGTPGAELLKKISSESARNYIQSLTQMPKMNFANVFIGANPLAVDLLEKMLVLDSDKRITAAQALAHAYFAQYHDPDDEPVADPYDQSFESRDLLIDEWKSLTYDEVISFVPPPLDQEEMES

Methyl 6,7-bis(4-fluorophenyl)-6-(4-pyridyl)thieno[3,2-b]pyridin-3-carboxylate [Example 1]
inhibition of p38α enzyme activity: more than 50%

From US20080318977A1, “Condensed Pyridines as Kinase Inhibitors” (Palau Pharma, S.A., priority 2004, published 2008)
